Measured values as given in publication PMC6476978.
These are yes or no findings as the source states them, for the method shown. In cells and extracts the contact can be indirect. These calls come from enrichment with a bait or labelling near it, and not all partners need be listed.

Target: T1, N protein of VHSV (viral hemorrhagic septicemia virus (VHSV) strain 07.71) (UniProt P24378)
T1 sequence: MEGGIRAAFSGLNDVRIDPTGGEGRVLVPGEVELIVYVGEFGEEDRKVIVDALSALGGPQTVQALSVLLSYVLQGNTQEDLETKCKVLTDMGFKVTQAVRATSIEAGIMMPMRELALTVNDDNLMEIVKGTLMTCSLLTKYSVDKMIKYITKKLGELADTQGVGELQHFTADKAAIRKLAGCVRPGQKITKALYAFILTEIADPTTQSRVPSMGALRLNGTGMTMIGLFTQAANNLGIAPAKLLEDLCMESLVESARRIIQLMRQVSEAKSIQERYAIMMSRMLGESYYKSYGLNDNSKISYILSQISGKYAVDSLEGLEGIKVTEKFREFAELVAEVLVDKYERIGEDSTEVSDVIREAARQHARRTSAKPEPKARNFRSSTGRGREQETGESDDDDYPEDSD
Assay: affinity purification with mass spectrometry; lysate (RIPA buffer) of rainbow trout RBCs exposed to VHSV at MOI 1 for 3 h; immunoprecipitated with monoclonal antibody 2C9 against N protein of VHSV overnight at 4°C, protein A Sepharose; LC ESI-MSMS

| Substance | binding |
| --- | --- |
| Actin beta (rainbow trout (endogenous in RBCs)) | binds |
| Actin gamma 1 (rainbow trout (endogenous in RBCs)) | binds |
| Enolase 1 (rainbow trout (endogenous in RBCs)) | binds |
| Histone cluster 2, H2be (rainbow trout (endogenous in RBCs)) | binds |
| Histone cluster 2, H3d (rainbow trout (endogenous in RBCs)) | binds |
| Myosin, heavy chain 6 (rainbow trout (endogenous in RBCs)) | binds |
| Peroxiredoxin 1 (rainbow trout (endogenous in RBCs)) | binds |
| Progesterone immunomodulatory binding factor 1 (rainbow trout (endogenous in RBCs)) | binds |
| Resistance to inhibitors of cholinesterase 8 homolog B (rainbow trout (endogenous in RBCs)) | binds |
| Ribosomal protein L5 (rainbow trout (endogenous in RBCs)) | binds |
| Ribosomal protein L15 (rainbow trout (endogenous in RBCs)) | binds |
| Ribosomal protein S4, X-linked (rainbow trout (endogenous in RBCs)) | binds |
| STE20-like kinase (rainbow trout (endogenous in RBCs)) | binds |
| Tubulin, alpha 1b (rainbow trout (endogenous in RBCs)) | binds |
